This is one part of the list.
Key:
Experiment in all cases: log2 fold change, soluble protein after heating vs DMSO (PISA); higher = thermal stabilisation; K562 cells, 10 uM, 30 min; active = over 0.2 and 3.5 SD of the protein, either way, in both replicates (recomputed)
[1] = compound: CN1CCN(CCOc2cc(OC3CCOCC3)c3c(Nc4c(Cl)ccc5c4OCO5)ncnc3c2)CC1 [saracatinib]
Procedure, shortened: (§1)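 K562 cells at 2×10^6 cells/mL were exposed to 10 μM compound for 30 min, then aliquots were heated for 3 min across 48°C-58°C, pooled, and extracted in PBS containing 0.5% NP-40 at 4°C. The supernatant after 21,000xg for 90 min was taken as soluble protein and measured by TMTpro 16plex LC-MS/MS with channel sums equalised. Thermal stability is reported relative to control samples, with values from duplicates. Fold changes are given on a log2 scale.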

Chains of the proteins cited; added tags and fusions are not shown. Lines headed by an entry give the natural chain unless they say otherwise; changes in a name come on top.
UniProt O94822: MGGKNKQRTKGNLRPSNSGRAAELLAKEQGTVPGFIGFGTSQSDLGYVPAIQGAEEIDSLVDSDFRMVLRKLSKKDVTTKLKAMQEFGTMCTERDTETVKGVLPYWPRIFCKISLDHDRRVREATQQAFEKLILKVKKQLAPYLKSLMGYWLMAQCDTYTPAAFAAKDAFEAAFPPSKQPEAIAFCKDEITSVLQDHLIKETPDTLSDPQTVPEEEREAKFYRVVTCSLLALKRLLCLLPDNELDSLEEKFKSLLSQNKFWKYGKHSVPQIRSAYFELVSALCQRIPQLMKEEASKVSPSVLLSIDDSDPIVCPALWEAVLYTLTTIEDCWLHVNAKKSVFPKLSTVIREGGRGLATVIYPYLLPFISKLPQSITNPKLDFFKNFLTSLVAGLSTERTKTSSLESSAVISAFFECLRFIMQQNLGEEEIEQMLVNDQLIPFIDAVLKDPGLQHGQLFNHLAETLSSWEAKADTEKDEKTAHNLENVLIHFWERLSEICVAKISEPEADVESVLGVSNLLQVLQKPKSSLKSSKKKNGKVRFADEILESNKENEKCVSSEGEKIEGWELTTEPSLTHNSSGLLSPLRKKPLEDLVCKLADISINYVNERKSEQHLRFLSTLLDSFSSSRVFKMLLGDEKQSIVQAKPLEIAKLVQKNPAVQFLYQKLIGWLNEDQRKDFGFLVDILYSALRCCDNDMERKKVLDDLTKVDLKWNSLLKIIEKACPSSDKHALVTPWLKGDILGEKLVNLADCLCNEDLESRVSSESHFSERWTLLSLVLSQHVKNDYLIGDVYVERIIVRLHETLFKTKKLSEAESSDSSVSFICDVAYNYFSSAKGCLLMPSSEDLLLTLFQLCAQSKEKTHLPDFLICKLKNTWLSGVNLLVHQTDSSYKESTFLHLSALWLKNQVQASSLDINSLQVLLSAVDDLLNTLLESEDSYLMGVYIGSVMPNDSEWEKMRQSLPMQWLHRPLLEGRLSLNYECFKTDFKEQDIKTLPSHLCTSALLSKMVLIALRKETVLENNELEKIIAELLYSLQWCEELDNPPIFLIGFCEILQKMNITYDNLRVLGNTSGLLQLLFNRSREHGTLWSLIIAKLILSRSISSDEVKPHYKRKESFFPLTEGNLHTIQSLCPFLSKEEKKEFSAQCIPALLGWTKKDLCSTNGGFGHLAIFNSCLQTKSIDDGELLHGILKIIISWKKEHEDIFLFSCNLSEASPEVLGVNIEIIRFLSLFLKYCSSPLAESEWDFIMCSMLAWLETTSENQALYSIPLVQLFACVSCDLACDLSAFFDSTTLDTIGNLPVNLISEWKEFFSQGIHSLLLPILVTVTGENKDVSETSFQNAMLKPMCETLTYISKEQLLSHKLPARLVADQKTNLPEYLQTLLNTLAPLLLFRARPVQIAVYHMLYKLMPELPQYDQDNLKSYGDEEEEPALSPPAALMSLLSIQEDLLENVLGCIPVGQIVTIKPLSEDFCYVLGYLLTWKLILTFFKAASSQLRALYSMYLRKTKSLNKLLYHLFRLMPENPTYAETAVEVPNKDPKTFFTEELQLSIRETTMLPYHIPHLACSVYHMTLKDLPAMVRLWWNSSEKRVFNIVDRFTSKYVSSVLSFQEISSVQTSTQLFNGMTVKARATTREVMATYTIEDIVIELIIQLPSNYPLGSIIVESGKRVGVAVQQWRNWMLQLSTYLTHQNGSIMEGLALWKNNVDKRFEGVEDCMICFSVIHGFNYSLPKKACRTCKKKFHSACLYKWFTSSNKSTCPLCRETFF
UniProt P43361: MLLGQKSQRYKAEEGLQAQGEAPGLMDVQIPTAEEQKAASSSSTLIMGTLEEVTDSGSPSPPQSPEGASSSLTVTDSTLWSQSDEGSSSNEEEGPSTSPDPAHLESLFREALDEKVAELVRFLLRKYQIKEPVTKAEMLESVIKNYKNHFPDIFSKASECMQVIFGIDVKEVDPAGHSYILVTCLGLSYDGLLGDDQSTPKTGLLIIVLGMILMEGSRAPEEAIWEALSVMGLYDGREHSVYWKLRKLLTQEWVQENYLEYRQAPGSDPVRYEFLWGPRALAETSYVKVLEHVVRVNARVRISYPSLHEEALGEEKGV
UniProt P49006: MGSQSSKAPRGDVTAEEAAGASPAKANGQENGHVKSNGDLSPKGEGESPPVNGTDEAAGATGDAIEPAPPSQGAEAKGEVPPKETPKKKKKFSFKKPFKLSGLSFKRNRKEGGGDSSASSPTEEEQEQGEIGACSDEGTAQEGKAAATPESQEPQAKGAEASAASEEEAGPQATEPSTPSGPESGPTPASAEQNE
UniProt P27816: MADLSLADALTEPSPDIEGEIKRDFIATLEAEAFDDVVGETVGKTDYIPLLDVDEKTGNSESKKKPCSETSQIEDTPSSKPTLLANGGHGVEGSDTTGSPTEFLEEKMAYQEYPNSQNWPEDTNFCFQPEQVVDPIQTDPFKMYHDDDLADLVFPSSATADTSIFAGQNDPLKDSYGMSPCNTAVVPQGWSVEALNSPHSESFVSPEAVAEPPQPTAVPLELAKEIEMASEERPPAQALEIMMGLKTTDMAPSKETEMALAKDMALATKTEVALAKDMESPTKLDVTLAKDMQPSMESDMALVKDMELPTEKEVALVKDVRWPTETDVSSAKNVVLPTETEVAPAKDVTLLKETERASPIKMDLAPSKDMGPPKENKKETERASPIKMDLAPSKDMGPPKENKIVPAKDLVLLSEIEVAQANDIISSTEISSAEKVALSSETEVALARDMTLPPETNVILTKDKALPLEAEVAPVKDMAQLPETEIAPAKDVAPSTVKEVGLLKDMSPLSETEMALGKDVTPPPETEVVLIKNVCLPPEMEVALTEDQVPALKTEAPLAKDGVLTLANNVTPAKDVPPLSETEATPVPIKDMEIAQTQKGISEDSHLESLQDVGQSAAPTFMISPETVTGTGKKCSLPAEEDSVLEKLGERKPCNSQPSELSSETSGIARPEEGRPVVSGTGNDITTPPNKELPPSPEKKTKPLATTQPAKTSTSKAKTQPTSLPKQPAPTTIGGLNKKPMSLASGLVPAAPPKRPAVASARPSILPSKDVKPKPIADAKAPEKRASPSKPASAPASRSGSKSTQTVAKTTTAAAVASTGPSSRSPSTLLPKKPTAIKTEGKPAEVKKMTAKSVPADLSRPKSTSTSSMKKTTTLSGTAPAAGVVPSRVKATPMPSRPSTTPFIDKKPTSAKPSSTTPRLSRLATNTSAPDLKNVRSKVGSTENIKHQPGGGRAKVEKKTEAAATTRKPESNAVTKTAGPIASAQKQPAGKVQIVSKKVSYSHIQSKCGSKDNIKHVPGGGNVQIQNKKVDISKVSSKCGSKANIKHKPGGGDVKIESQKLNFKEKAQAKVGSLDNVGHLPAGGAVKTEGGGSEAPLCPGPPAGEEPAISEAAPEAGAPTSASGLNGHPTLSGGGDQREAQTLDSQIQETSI
UniProt Q86X29: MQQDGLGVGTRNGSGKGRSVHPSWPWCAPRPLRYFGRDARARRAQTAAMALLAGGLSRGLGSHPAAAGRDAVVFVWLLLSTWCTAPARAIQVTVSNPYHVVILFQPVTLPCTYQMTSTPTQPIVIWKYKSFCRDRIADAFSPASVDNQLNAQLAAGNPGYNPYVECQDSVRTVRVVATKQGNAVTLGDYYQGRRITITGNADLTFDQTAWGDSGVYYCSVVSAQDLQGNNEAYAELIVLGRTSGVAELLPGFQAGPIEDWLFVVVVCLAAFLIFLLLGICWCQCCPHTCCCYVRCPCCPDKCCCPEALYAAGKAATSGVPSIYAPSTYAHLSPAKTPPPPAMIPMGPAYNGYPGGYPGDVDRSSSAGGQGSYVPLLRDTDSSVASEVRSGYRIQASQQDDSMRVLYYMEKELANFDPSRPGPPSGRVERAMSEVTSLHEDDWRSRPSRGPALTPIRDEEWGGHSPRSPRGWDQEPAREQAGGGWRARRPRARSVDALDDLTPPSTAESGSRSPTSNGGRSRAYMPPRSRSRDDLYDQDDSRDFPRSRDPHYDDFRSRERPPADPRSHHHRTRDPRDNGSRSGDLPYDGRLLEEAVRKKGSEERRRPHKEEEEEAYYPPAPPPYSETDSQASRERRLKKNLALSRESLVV
UniProt P51884: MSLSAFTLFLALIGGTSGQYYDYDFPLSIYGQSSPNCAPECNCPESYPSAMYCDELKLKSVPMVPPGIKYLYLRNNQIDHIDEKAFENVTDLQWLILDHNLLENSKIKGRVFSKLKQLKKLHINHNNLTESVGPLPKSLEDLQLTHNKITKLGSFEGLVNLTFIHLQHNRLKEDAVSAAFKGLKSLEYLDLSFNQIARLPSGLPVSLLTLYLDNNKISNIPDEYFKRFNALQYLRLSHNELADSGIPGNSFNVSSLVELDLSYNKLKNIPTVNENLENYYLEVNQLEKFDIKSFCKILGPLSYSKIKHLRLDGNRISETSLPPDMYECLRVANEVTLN
UniProt Q6P9F7: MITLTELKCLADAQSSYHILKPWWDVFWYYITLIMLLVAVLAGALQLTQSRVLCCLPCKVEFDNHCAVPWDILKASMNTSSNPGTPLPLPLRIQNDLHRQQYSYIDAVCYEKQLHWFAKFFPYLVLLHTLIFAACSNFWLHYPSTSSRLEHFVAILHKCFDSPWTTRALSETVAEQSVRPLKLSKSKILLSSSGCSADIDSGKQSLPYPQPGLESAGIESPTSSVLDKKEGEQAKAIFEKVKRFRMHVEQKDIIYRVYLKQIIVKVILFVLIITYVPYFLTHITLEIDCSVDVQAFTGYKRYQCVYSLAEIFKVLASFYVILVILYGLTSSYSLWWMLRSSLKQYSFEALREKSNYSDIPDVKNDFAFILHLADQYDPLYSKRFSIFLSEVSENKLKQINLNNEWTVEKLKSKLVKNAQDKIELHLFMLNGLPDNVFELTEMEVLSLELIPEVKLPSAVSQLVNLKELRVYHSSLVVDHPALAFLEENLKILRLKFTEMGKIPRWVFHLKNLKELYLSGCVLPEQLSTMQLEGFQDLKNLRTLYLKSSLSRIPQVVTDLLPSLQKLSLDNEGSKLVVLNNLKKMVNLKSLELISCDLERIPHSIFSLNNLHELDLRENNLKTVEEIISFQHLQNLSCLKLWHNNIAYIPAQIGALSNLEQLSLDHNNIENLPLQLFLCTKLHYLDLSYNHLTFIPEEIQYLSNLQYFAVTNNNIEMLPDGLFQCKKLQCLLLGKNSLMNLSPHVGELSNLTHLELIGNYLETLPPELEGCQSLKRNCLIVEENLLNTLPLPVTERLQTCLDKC
UniProt O95372: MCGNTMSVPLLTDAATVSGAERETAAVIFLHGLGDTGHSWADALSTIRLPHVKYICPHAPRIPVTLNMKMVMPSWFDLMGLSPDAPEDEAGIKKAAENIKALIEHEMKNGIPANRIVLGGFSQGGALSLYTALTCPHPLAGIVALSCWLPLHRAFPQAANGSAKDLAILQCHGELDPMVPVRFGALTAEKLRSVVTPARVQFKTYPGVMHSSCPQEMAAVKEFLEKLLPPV
UniProt Q9H089: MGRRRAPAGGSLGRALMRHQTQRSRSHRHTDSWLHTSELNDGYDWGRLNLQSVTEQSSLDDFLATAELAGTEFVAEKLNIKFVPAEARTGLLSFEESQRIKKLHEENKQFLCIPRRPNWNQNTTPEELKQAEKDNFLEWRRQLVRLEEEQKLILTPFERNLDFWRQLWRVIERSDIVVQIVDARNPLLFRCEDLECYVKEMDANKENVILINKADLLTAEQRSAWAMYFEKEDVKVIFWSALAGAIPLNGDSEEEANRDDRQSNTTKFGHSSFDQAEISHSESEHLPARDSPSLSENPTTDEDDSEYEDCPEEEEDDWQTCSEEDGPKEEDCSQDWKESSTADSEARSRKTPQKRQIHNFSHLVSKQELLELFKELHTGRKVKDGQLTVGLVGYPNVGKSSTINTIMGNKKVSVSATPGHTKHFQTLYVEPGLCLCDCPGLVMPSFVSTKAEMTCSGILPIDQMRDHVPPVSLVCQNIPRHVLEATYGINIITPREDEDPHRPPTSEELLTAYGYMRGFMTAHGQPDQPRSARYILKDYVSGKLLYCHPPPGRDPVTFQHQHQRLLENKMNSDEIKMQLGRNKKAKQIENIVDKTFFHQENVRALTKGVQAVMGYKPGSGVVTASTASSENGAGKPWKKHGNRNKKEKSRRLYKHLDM
UniProt P53778: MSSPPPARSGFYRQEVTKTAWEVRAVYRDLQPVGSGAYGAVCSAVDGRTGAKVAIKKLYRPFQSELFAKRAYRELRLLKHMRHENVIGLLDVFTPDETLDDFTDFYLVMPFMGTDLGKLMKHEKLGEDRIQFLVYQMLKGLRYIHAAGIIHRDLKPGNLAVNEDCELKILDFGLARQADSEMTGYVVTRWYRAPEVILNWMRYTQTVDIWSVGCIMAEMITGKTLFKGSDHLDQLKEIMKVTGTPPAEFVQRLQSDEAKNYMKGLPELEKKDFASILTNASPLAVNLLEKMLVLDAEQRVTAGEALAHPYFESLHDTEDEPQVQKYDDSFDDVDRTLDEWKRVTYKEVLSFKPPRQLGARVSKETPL

[2] = compound: CN1CCN(c2nc(C3=C(c4c[nH]c5ccccc45)C(=O)NC3=O)c3ccccc3n2)CC1 [sotrastaurin]
Procedure, shortened: as §1

[3] = compound: CN1CCc2c(c3ccccc3n2Cc2ccc(C(=O)NO)cc2)C1 [Tubastatin A]
Procedure, shortened: as §1

[4] = compound: CNC(=O)C1=CC=CC=C1NC2=NC(=NC=C2Cl)NC3=C(C=C(C=C3)N4CCOCC4)OC
Procedure, shortened: as §1

[5] = compound: CNC(=O)c1ccc(Nc2ncc(C(F)(F)F)c(NCc3nccnc3N(C)S(C)(=O)=O)n2)cc1 [defactinib]
Procedure, shortened: as §1

[6] = compound: CNCc1ccc(-c2[nH]c3cc(F)cc4c3c2CCNC4=O)cc1 [rucaparib]
Procedure, shortened: as §1

[7] = compound: CNc1nc(-c2ccc3c(N)n[nH]c3c2)cc(N2C[C@@H](C(=O)NC3CCCCC3)CC[C@H]2C)n1
Procedure, shortened: as §1

[8] = compound: COC(=O)N[C@@H](C)CNc1nccc(-c2cn(C(C)C)nc2-c2cc(Cl)cc(NS(C)(=O)=O)c2F)n1 [encorafenib]
Procedure, shortened: as §1

[9] = compound: COC(=O)[C@H](CCSC)NC(=O)C1=C(C=C(C=C1)NC[C@H](CS)N)C2=CC=CC=C2
Procedure, shortened: as §1

[10] = compound: COC1=CC=C(C=C1)CN2C=CC3=C2C=C(C=C3)C(=O)NO
Procedure, shortened: as §1

[11] = compound: CON(C)C(=O)N1N=C(c2cc(F)ccc2F)S[C@@]1(CCCN)c1ccccc1 [filanesib]
Procedure, shortened: as §1

[12] = compound: CO[C@H]1C[C@@H]2CC[C@@H](C)[C@@](O)(O2)C(=O)C(=O)N2CCCC[C@H]2C(=O)O[C@H]([C@H](C)C[C@@H]2CC[C@H](n3cnnn3)[C@H](OC)C2)CC(=O)[C@H](C)/C=C(\C)[C@@H](O)[C@@H](OC)C(=O)[C@H](C)C[C@H](C)/C=C/C=C/C=C/1C [zotarolimus]
Procedure, shortened: as §1

[13] = compound: COc1cc(C(=O)O)ccc1NC(=O)[C@@H]1N[C@@H](CC(C)(C)C)[C@](C#N)(c2ccc(Cl)cc2F)[C@H]1c1cccc(Cl)c1F [idasanutlin]
Procedure, shortened: as §1

[14] = compound: COc1cc(Nc2ncc3c(n2)-c2ccc(Cl)cc2C(c2c(F)cccc2OC)=NC3)ccc1C(=O)O [alisertib]
Procedure, shortened: as §1

[15] = compound: COc1cc2nc(-c3cc(F)ccc3O)nc(N[C@@H]3CNC[C@H]3C(C)(C)O)c2cc1OC
Procedure, shortened: as §1

[16] = compound: COc1cc2ncnc(Nc3ccc(F)c(Cl)c3)c2cc1OCCCN1CCOCC1 [gefitinib]
Procedure, shortened: as §1

[17] = compound: COc1cccc2cc(-c3nc([C@H]4CC[C@H](C(=O)O)CC4)n4ncnc(N)c34)[nH]c12
Procedure, shortened: as §1

[18] = compound: CS(=O)(=O)CCNCc1ccc(-c2ccc3ncnc(Nc4ccc(OCc5cccc(F)c5)c(Cl)c4)c3c2)o1 [lapatinib]
Procedure, shortened: as §1

[19] = compound: CS(=O)(=O)N1CCN(Cc2cc3nc(-c4cccc5[nH]ncc45)nc(N4CCOCC4)c3s2)CC1 [pictilisib]
Procedure, shortened: as §1

[20] = compound: CN1CC[C@H](c2c(O)cc(O)c3c(=O)cc(-c4ccccc4Cl)oc23)[C@H](O)C1 [alvocidib]
Procedure, shortened: as §1

Target	log2 fold change [1]	log2 fold change [2]	log2 fold change [3]	log2 fold change [4]	log2 fold change [5]	log2 fold change [6]	log2 fold change [7]	log2 fold change [8]	log2 fold change [9]	log2 fold change [10]	log2 fold change [11]	log2 fold change [12]	log2 fold change [13]	log2 fold change [14]	log2 fold change [15]	log2 fold change [16]	log2 fold change [17]	log2 fold change [18]	log2 fold change [19]	log2 fold change [20]
LTN1 isoform 3 (UniProt O94822)	inactive: -0.016	inactive: -0.114	inactive: 0.196	inactive: 0.01	inactive: -0.114	inactive: 0.158	inactive: -0.012	inactive: 0.047	inactive: -0.057	inactive: 0	inactive: -0.009	inactive: 0.039	inactive: -0.136	inactive: 0.01	inactive: 0.04	inactive: -0.04	inactive: -0.108	inactive: -0.029	inactive: -0.157	
MAGEA8 (UniProt P43361)	inactive: -0.006		inactive: 0.101	inactive: 0.123	inactive: -0.267	inactive: -0.012	inactive: -0.092	inactive: 0.038	inactive: -0.038	inactive: 0.061		inactive: 0.108	inactive: 0.002		inactive: 0.057	inactive: -0.069		inactive: -0.032	inactive: 0.145	
MAP4K4 isoform 3 (UniProt O95819)	inactive: -0.054		inactive: -0.002	inactive: -0.051	inactive: -0.067	inactive: -0.004	inactive: -0.037	inactive: 0.026	inactive: 0.018	inactive: -0.021	inactive: 0.032	inactive: 0.021	inactive: 0.093		inactive: -0.05	inactive: 0.01	inactive: 0.02	inactive: -0.021	inactive: -0.153	
MAP2K2 (UniProt P36507)	inactive: 0.012	inactive: -0.037	inactive: 0.01	inactive: -0.138	inactive: -0.056	inactive: -0.039	inactive: -0.021	inactive: -0.074	inactive: 0.001	inactive: -0.014	inactive: -0.061	inactive: 0.018	inactive: 0	inactive: -0.103	inactive: -0.011	inactive: -0.011	inactive: 0.007	inactive: -0.069	inactive: -0.023	
MARCKSL1 (UniProt P49006)	inactive: 0.02	active: 0.315	inactive: -0.043	inactive: 0.013	inactive: 0.007	inactive: -0.035	inactive: 0.063	inactive: -0.04	inactive: -0.008	inactive: -0.074	inactive: 0.002	inactive: -0.033	inactive: -0.011	inactive: -0.093	inactive: 0.073	inactive: -0.027	inactive: 0.028	inactive: -0.061	inactive: 0.026	
MAP1LC3B2 (UniProt A6NCE7)	inactive: 0.016	inactive: -0.115	inactive: 0.037	inactive: 0.026	inactive: -0.015	inactive: 0.004	inactive: -0.015	inactive: 0.032	inactive: -0.048	inactive: -0.026	inactive: -0.062	inactive: 0.011	inactive: -0.022	inactive: -0.004	inactive: -0.032	inactive: -0.003	inactive: -0.035	inactive: -0.011	inactive: -0.004	
MAP3K20 (UniProt Q9NYL2)	inactive: -0.106	inactive: 0.055	inactive: 0.004	inactive: 0.054	inactive: -0.018	inactive: 0.002	inactive: 0.01	inactive: 0.02	inactive: -0.034	inactive: 0.04	inactive: 0.075	inactive: 0.033	inactive: 0.064		inactive: 0.048	inactive: -0.042	inactive: -0.059	inactive: 0	inactive: -0.02	
MAP4 (UniProt P27816)	inactive: 0.017	inactive: 0.019	inactive: -0.029	inactive: -0.014	inactive: 0.016	inactive: 0.009	inactive: -0.029	inactive: -0.001	inactive: 0.031	inactive: -0.002	inactive: 0.022	inactive: -0.029	inactive: 0.028	inactive: -0.034	inactive: -0.027	inactive: -0.019	inactive: -0.003	inactive: -0.002	inactive: -0.078	
MAGEB10 (UniProt Q96LZ2)	inactive: -0.062		inactive: -0.035		inactive: 0.217	inactive: -0.066	inactive: 0.118	inactive: 0.004	inactive: 0.08			inactive: 0.023	inactive: 0.184			inactive: 0.139				inactive: 0.151
MAP3K7 (UniProt O43318)	inactive: -0.07	inactive: -0.146	inactive: 0.054	inactive: 0.023	inactive: -0.023	inactive: 0.099	inactive: -0.035	inactive: 0.1	inactive: -0.011	inactive: 0.105	inactive: 0.026	inactive: -0.074	inactive: -0.03	inactive: 0.084	inactive: 0.065	inactive: 0.016	inactive: -0.054	inactive: -0.058	inactive: 0.088	
LSR isoform 3 (UniProt Q86X29)	inactive: -0.207	inactive: 0.176	inactive: 0.084				inactive: 0.114				inactive: 0.188	inactive: 0.115		inactive: -0.011	inactive: 0.041		inactive: 0.033	inactive: 0.073		
LUZP1 (UniProt Q86V48)	inactive: 0.075	inactive: -0.088	inactive: 0.13	inactive: -0.022	inactive: -0.498		inactive: 0.002		inactive: -0.209	inactive: -0.08	active: 0.552	inactive: -0.059	inactive: 0.03	inactive: -0.081	inactive: -0.036	inactive: 0.051	inactive: -0.117	inactive: 0.041	inactive: 0.07	
MAGEA9 (UniProt P43362)	inactive: 0.041	inactive: -0.037	inactive: -0.038	inactive: -0.001	inactive: -0.175	inactive: -0.153	inactive: 0.015	inactive: 0.039	inactive: -0.082	inactive: -0.246	inactive: 0.003	inactive: 0.015	inactive: 0.087	inactive: 0.057	inactive: 0.024	inactive: 0.034	inactive: 0.033	inactive: -0.018	inactive: -0.018	
MARK3 (UniProt P27448)	inactive: 0.024	active: -0.434	inactive: 0.058	inactive: -0.367	inactive: -0.176	inactive: -0.016	inactive: -0.069	inactive: 0.096	inactive: 0.033	inactive: 0.008	inactive: 0.054	inactive: 0.062	inactive: 0.091	inactive: 0.05	inactive: -0.219	inactive: -0.002	inactive: -0.063	inactive: 0.022	inactive: -0.033	
LUM (UniProt P51884)	inactive: 0.081	inactive: 0.29	inactive: -0.145	inactive: 0.085	inactive: -0.071	inactive: -0.167	inactive: 0.014	inactive: -0.011	inactive: 0.283	inactive: -0.151	inactive: 0.169	inactive: 0	inactive: -0.023		inactive: -0.216	inactive: 0.087		inactive: 0.067		
LRRC8B (UniProt Q6P9F7)	inactive: 0.154	inactive: -0.174		inactive: -0.016			inactive: -0.036				inactive: 0.093			inactive: -0.05	inactive: -0.011	inactive: -0.086	inactive: -0.329	inactive: 0.187		
LYPLA2 (UniProt O95372)	inactive: -0.063	inactive: -0.039	inactive: 0.018	inactive: 0.007	inactive: -0.09	inactive: -0.041	inactive: -0.01	inactive: -0.031	inactive: 0.087	inactive: 0.188	inactive: 0.014	inactive: 0.002	inactive: 0.027	inactive: 0.121	inactive: -0.23	inactive: 0.047	inactive: 0.044	inactive: -0.048	inactive: -0.026	
LSG1 (UniProt Q9H089)	inactive: -0.113		inactive: 0.017	inactive: 0.082	inactive: -0.016	inactive: 0.229	inactive: 0.115	inactive: 0.195	inactive: -0.01	inactive: -0.05		inactive: -0.004	inactive: 0.161	inactive: -0.116	inactive: 0.071		inactive: -0.181	inactive: 0.211		inactive: 0.235
MAPK12 (UniProt P53778)	inactive: 0.119		inactive: -0.037	inactive: 0.112	inactive: -0.06	inactive: 0.101	inactive: -0.074	inactive: 0.017	inactive: 0.059	inactive: 0.066	inactive: -0.062	inactive: 0.026	inactive: -0.072	inactive: -0.115	inactive: 0.084	inactive: -0.269	inactive: 0.093	inactive: -0.056	inactive: 0.062	

2 entries from above in a different format.
Target | log2 fold change [1] | log2 fold change [2] | log2 fold change [3] | log2 fold change [4] | log2 fold change [5] | log2 fold change [6] | log2 fold change [7] | log2 fold change [8] | log2 fold change [9] | log2 fold change [10] | log2 fold change [11] | log2 fold change [12] | log2 fold change [13] | log2 fold change [14] | log2 fold change [15] | log2 fold change [16] | log2 fold change [17] | log2 fold change [18] | log2 fold change [19] | log2 fold change [20]
MARK3 (UniProt P27448) | inactive: 0.024 | active: -0.434 | inactive: 0.058 | inactive: -0.367 | inactive: -0.176 | inactive: -0.016 | inactive: -0.069 | inactive: 0.096 | inactive: 0.033 | inactive: 0.008 | inactive: 0.054 | inactive: 0.062 | inactive: 0.091 | inactive: 0.05 | inactive: -0.219 | inactive: -0.002 | inactive: -0.063 | inactive: 0.022 | inactive: -0.033 | 
LUM (UniProt P51884) | inactive: 0.081 | inactive: 0.29 | inactive: -0.145 | inactive: 0.085 | inactive: -0.071 | inactive: -0.167 | inactive: 0.014 | inactive: -0.011 | inactive: 0.283 | inactive: -0.151 | inactive: 0.169 | inactive: 0 | inactive: -0.023 |  | inactive: -0.216 | inactive: 0.087 |  | inactive: 0.067 |  | 
